This note sets out measurements from publication PMC10603047.

Results are given in words; binding and its absence hold for the method and conditions named. In cells and extracts the contact can be indirect. Some binding calls cover weakened binding; strength is not graded here.

In the assay the target is T1, Trim21 (mouse (endogenous in MC3T3-E1)) (UniProt Q62191).
T1 sequence: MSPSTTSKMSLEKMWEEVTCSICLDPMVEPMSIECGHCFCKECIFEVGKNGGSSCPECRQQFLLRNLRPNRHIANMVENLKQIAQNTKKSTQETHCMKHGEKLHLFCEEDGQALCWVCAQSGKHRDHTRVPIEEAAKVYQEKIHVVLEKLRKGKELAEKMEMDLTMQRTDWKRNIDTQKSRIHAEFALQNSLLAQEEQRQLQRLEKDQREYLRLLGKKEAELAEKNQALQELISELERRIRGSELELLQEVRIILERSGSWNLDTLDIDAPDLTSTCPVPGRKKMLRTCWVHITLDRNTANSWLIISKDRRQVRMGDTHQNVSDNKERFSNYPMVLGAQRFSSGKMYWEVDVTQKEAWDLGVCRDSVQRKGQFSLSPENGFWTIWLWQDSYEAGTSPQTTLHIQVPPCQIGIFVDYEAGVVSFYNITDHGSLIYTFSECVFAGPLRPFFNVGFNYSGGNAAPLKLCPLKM
In words: co-IP; endogenous proteins of MC3T3-E1 cells with or without osteogenic induction; lysed by sonication in Western and IP Lysis Buffer; antibodies against YAP1, BCL9, Trim21 or control IgG overnight at 4 °C, protein A agarose, five washes, immunoblotting.

B1: BCL9 (protein, UniProt Q9D219 1-1425)
chain: MHPSNPKVRSSPSGNTQSSPKSKQEVMVRPPTVMSPSGNPQLDSKFSNQGKPGGSASQSQPSPCDSKSGGHTPKALPGPGGSMGLKNGAGNGAKGKGKRERSISADSFDQRDPGTPNDDSDIKECNSADHIKSQESQHTPHSMTPSTATAPRSSTPSHGQTPAPEPISAQKTPAKVVYVFSTEMANKAAEAVLKGQVETIVSFHIQNISNSKSERSTAPLNTQIPTLRNDPKPLPQQPPAPANQDQNSSQNARLQPTPPIQAPAPKPTAAPRPLDRESPGVENKLIPPVGSPGSSTPLPPDGTGPNSTPNNRAVTPVSQGSNSSSADPKAPPPPPVSGGEPPTLGENPDGLSQEQLEHRERSLQTLRDIQRMLFPDEKEFTAGQTGGPQQNTGVLDGPQKKPDGPIQAMMSQSQSLGKGPGPRTDVGAPFGPQGHRDVPFSPDEMVPPNMSSQSGPIGPDHLDHMTPEQIAWLKLQQEFYEEKRRKQEQVVVQQCSLQDMMVHQHGPRGVVRGPPPPYQMAPGEGWAPGAEPFPDGINISHSLPPRGMAPHPNMPGSQMRLPGFAGMINSEMEGPNVPNPASRPGLSGVSWPDDVPKIPDGRNFPPGQGVFSGPGRGERFPNPQGLSEEMFQQQLAEKQLALPPGMSMEGIRPGMEMNRMIPGSQRHMEPGSNPIFPRIPVEGPLSPSRGDFPKGMPPQIGPGRELEFGMVPGGMKGEVNLNVNMGSSSQMIPQKMREAGAGPEEMMKLRPGSSEMLPAQQKMVPLPFGEHPQQEYGVGPRPFLPMSQGPGSNSGLRNLREPIGPDQRTNSRLSHMPPLPLNPSSNPTSLSTAPPVQRGLGRKPLDISVAGSQVHSPGINPLKSPTMHQVQSPMLGSPSGNLKSPQTPSQLAGMLAGPAAAASIKSPPVLGSAAASPVHLKSPSLPAPSPGWTSSPKPPLQSPGIPPNHKAPLTMASPAMLGSVESGGPPPPTASQPASVNIPGSLPSSTPYPMPPEPTLSQNPLSIMMSRMSKFAMPSSTPLYHDAIKTVASSDDDSPPARSPNLPSMNSMPGMGINTQNPRISGPNPVVPMPTLSPMGMTQPLSHSNQMPSPNAMGPSIPPHGVPMGPGLMSHNPIMGHGSQEPPMVPQGRMGFPQGFPPVQSPPQQVPFPHNGPTGGQGNFPGGIGFPGEGPLGRPSNLPQSSADPALCKPGGPGAPDSFTVLGNSMPSVFTDPDLQEVIRPGATGIPEFDLSRIIPSEKPSQTLQYFPRGEVPGRKQPQGPGPGFSHMQGMMSDQAPRMGLALPGMGGPGPVGTPDIPLGTSPSMPGHNPMRPPAFLQQGMMGPHHRMMSPAQSTVPGPATLMTNPAAAVGMIPGKDRGPAGLYTHPGPVGSPGMMMSMQGMMGPQQNIMIPPQMRPRGMAADVGMGGFSQGPGNPGNMMF
For B1, the binding entry is reported as “binds”.
